Results are given in words; binding and its absence hold for the method and conditions named. Some results given as binding are weak or reduced against the parent protein; the word gives no strength.
Experiments:
[1] = molecular target: recombinant human EMR1 (human) (UniProt Q14246); test: ELISA on recombinant human EMR1
[2] = molecular target: human EMR1-Fc fusion protein (human) (UniProt Q14246); test: ELISA
[3] = molecular target: recombinant human EMR1 (human) (UniProt Q14246); test: Western blot under reducing conditions

Protein sequences, listed by entry. Tags and fused reporters are not part of them. Residues count along the entry.
UniProt Q14246, residues 21-599: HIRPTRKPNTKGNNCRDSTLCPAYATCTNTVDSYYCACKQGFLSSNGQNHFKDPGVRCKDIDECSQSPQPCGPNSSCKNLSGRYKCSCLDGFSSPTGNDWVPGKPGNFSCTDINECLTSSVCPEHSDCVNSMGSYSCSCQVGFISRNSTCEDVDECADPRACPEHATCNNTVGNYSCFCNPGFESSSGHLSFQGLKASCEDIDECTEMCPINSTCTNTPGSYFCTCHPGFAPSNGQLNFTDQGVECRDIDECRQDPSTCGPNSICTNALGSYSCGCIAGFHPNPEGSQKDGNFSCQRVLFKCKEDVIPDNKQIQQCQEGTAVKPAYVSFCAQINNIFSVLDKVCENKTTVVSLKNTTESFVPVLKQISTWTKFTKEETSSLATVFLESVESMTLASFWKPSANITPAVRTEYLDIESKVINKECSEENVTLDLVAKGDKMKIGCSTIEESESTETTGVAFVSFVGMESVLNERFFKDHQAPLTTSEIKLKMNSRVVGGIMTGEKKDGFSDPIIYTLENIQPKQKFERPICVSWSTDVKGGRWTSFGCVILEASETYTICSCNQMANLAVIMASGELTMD

B1: monoclonal antibody 19-1E7 (antibody, V domains shown)
VH: QVQLKESGPGLVAPSQSLSITCTVSGFSLTNFGIHWVRQPPGKGLEWLGVIWSGGGTNYNSALMSRLSISKDNSKSQVFLKMNSLQTDDTAIYYCVSIYYRGFDSWGQGTTLTVSS
VL: DVFMTQAPLSLPVSLGDQASISCRSSQSIVHSNGNTYLEWYLQKPGQSPKLLIYRVSNRFSGVPDRFSGSGSGTDFTLKISRVEAEDLGVYYCFQGSHVPLTFGAGTRLELK
notes: Murine hybridoma antibody raised against human EMR1-Fc; Hybridoma supernatant was used in the screening
- binding [1]: binds

B2: EMS Fab (Fab, V domains shown)
VH: B1 VH
VL: B1 VL
- binding [2]: binds

B3: chimeric 19-1E7 IgG1k antibody (c1E7) (antibody, V domains shown)
VH: B1 VH
VL: B1 VL
notes: 19-1E7 variable regions combined with human gamma-1 Fc and kappa constant regions (IgG1 kappa); Made in fucosylated (CHOK1 SV) and non-fucosylated (MS704-PF) forms; also called chimeric 1E7
- binding [3]: binds
